Article PMC10018365, “Cryo-EM structure of the fully assembled Elongator complex” (Nucleic Acids Research, 2023)
No constants are given. Whether binding was seen depends on the method and setting. Some binding calls cover weakened binding; strength is not graded here.

T1: Mus musculus Elp3 (Mus musculus) (UniProt Q9CZX0)
T1 sequence: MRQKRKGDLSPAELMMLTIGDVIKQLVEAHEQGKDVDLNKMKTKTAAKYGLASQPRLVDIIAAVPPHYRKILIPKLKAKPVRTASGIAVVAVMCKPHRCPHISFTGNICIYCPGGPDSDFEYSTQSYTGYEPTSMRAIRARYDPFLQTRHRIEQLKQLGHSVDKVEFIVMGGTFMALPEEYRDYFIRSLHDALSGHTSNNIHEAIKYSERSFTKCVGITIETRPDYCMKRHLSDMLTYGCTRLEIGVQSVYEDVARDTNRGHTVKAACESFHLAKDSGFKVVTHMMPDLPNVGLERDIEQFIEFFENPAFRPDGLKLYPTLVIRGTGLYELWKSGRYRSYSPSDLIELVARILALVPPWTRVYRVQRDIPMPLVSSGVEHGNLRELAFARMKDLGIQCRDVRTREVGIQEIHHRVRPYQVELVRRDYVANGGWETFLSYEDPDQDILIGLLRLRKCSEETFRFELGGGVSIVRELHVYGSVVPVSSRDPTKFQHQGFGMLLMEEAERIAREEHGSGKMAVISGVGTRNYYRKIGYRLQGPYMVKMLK

T2: Mus musculus Elp1 (Mus musculus) (UniProt Q7TT37)
T2 sequence: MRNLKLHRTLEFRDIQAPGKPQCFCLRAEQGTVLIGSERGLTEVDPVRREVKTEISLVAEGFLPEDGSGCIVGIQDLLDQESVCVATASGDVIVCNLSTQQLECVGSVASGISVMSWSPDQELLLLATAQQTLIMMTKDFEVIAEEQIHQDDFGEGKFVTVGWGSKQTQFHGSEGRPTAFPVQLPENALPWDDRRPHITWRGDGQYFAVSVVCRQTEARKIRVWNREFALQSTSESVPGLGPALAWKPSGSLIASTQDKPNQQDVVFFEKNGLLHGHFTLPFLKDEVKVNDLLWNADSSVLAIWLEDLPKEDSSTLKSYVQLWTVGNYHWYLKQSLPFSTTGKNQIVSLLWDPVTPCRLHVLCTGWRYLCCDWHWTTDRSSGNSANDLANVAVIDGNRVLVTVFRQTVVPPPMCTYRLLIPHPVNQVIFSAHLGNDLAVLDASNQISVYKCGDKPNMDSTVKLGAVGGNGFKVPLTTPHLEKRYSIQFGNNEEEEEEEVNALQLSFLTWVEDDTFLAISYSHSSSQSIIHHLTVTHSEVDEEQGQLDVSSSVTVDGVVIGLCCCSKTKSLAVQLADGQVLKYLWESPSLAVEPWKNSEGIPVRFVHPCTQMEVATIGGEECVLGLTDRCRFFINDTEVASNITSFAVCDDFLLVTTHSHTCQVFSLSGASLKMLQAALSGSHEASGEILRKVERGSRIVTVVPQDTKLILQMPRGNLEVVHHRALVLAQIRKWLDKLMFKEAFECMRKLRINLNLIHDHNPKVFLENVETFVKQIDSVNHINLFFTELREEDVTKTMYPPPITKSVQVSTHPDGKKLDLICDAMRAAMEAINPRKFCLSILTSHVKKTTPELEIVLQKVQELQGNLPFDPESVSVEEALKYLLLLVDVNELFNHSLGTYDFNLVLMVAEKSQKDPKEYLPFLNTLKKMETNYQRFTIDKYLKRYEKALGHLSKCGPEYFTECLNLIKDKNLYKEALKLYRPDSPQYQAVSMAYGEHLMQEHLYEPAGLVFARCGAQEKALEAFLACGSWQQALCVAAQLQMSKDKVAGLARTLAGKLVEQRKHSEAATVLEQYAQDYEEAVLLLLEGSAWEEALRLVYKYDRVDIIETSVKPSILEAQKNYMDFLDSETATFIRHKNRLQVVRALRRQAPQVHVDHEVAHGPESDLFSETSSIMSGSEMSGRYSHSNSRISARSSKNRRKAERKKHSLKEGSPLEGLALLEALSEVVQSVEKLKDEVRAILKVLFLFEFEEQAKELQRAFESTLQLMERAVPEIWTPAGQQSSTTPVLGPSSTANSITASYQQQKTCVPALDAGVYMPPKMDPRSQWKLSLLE

T3: Mus musculus Elp6 (Mus musculus) (UniProt Q8BK75)
T3 sequence: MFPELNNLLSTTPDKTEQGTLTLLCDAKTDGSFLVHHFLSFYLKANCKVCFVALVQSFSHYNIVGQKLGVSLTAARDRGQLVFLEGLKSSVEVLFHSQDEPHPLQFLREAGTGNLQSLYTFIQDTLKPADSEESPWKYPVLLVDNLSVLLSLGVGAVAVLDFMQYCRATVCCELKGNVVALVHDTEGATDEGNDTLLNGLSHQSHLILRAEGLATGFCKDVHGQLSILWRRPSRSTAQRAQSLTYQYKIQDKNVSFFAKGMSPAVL

T4: Homo sapiens Elp6 (Homo sapiens) (UniProt Q0PNE2)
T4 sequence: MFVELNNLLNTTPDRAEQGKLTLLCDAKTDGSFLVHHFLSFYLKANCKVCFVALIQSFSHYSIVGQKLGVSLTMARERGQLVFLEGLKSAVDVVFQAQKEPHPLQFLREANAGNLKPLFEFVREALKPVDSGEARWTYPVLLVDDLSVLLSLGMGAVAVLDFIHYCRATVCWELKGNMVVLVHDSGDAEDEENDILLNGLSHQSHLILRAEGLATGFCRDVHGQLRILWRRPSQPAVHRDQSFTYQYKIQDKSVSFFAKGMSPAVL


Columns and labels:
[1] = target: T1, Mus musculus Elp3 (Mus musculus); test: cryo-EM structure; MmElongator reconstituted from purified MmElp123 and MmElp456 and re-purified by gel filtration, 5.9 Å; both purified
[2] = target: T1, Mus musculus Elp3 (Mus musculus); test: co-purification (affinity chromatography and SEC); mouse and human subcomplexes co-expressed in insect cells; Elp123 by Twin-Strep-tag on Elp3 (StrepTrap), heparin, Superose 6; Elp456 by protein A on Elp6 (IgG Sepharose, TEV elution), Superose 6
[3] = target: T2, Mus musculus Elp1 (Mus musculus); test: cryo-EM structure; MmElongator reconstituted from purified MmElp123 and MmElp456 and re-purified by gel filtration, 5.9 Å; both purified
[4] = target: T3, Mus musculus Elp6 (Mus musculus); test: co-purification (affinity chromatography and SEC); mouse and human subcomplexes co-expressed in insect cells; Elp123 by Twin-Strep-tag on Elp3 (StrepTrap), heparin, Superose 6; Elp456 by protein A on Elp6 (IgG Sepharose, TEV elution), Superose 6
[5] = target: T4, Homo sapiens Elp6 (Homo sapiens); test: as above

| Binder | binding [1] | binding [3] | binding [4] | binding [5] | other results |
| --- | --- | --- | --- | --- | --- |
| Mus musculus Elp1 (protein, UniProt Q7TT37 1-1333) MRNLKLHRTLEFRDIQAPGKPQCFCLRAEQGTVLIGSERGLTEVDPVRREVKTEISLVAEGFLPEDGSGCIVGIQDLLDQESVCVATASGDVIVCNLSTQQLECVGSVASGISVMSWSPDQELLLLATAQQTLIMMTKDFEVIAEEQIHQDDFGEGKFVTVGWGSKQTQFHGSEGRPTAFPVQLPENALPWDDRRPHITWRGDGQYFAVSVVCRQTEARKIRVWNREFALQSTSESVPGLGPALAWKPSGSLIASTQDKPNQQDVVFFEKNGLLHGHFTLPFLKDEVKVNDLLWNADSSVLAIWLEDLPKEDSSTLKSYVQLWTVGNYHWYLKQSLPFSTTGKNQIVSLLWDPVTPCRLHVLCTGWRYLCCDWHWTTDRSSGNSANDLANVAVIDGNRVLVTVFRQTVVPPPMCTYRLLIPHPVNQVIFSAHLGNDLAVLDASNQISVYKCGDKPNMDSTVKLGAVGGNGFKVPLTTPHLEKRYSIQFGNNEEEEEEEVNALQLSFLTWVEDDTFLAISYSHSSSQSIIHHLTVTHSEVDEEQGQLDVSSSVTVDGVVIGLCCCSKTKSLAVQLADGQVLKYLWESPSLAVEPWKNSEGIPVRFVHPCTQMEVATIGGEECVLGLTDRCRFFINDTEVASNITSFAVCDDFLLVTTHSHTCQVFSLSGASLKMLQAALSGSHEASGEILRKVERGSRIVTVVPQDTKLILQMPRGNLEVVHHRALVLAQIRKWLDKLMFKEAFECMRKLRINLNLIHDHNPKVFLENVETFVKQIDSVNHINLFFTELREEDVTKTMYPPPITKSVQVSTHPDGKKLDLICDAMRAAMEAINPRKFCLSILTSHVKKTTPELEIVLQKVQELQGNLPFDPESVSVEEALKYLLLLVDVNELFNHSLGTYDFNLVLMVAEKSQKDPKEYLPFLNTLKKMETNYQRFTIDKYLKRYEKALGHLSKCGPEYFTECLNLIKDKNLYKEALKLYRPDSPQYQAVSMAYGEHLMQEHLYEPAGLVFARCGAQEKALEAFLACGSWQQALCVAAQLQMSKDKVAGLARTLAGKLVEQRKHSEAATVLEQYAQDYEEAVLLLLEGSAWEEALRLVYKYDRVDIIETSVKPSILEAQKNYMDFLDSETATFIRHKNRLQVVRALRRQAPQVHVDHEVAHGPESDLFSETSSIMSGSEMSGRYSHSNSRISARSSKNRRKAERKKHSLKEGSPLEGLALLEALSEVVQSVEKLKDEVRAILKVLFLFEFEEQAKELQRAFESTLQLMERAVPEIWTPAGQQSSTTPVLGPSSTANSITASYQQQKTCVPALDAGVYMPPKMDPRSQWKLSLLE |  |  |  |  | binding [2]: binds |
| Homo sapiens Elp5 (protein, UniProt Q8TE02 1-300) MLDSLLALGGLVLLRDSVEWEGRSLLKALVKKSALCGEQVHILGCEVSEEEFREGFDSDINNRLVYHDFFRDPLNWSKTEEAFPGGPLGALRAMCKRTDPVPVTIALDSLSWLLLRLPCTTLCQVLHAVSHQDSCPGDSSSVGKVSVLGLLHEELHGPGPVGALSSLAQTEVTLGGTMGQASAHILCRRPRQRPTDQTQWFSILPDFSLDLQEGPSVESQPYSDPHIPPVDPTTHLTFNLHLSKKEREARDSLILPFQFSSEKQQALLRPRPGQATSHIFYEPDAYDDLDQEDPDDDLDI |  |  |  | binds |  |
| Homo sapiens Elp4 (protein, UniProt Q96EB1 1-424) MAAVATCGSVAASTGSAVATASKSNVTSFQRRGPRASVTNDSGPRLVSIAGTRPSVRNGQLLVSTGLPALDQLLGGGLAVGTVLLIEEDKYNIYSPLLFKYFLAEGIVNGHTLLVASAKEDPANILQELPAPLLDDKCKKEFDEDVYNHKTPESNIKMKIAWRYQLLPKMEIGPVSSSRFGHYYDASKRMPQELIEASNWHGFFLPEKISSTLKVEPCSLTPGYTKLLQFIQNIIYEEGFDGSNPQKKQRNILRIGIQNLGSPLWGDDICCAENGGNSHSLTKFLYVLRGLLRTSLSACIITMPTHLIQNKAIIARVTTLSDVVVGLESFIGSERETNPLYKDYHGLIHIRQIPRLNNLICDESDVKDLAFKLKRKLFTIERLHLPPDLSDTVSRSSKMDLAESAKRLGPGCGMMAGGKKHLDF |  |  |  | binds |  |

Further lines, with some results ahead:

| binding [1] | binding [3] | binding [4] | binding [5] | Binder | other results |
| --- | --- | --- | --- | --- | --- |
| binds |  |  |  | Mus musculus Elp6 (protein, UniProt Q8BK75 1-266) MFPELNNLLSTTPDKTEQGTLTLLCDAKTDGSFLVHHFLSFYLKANCKVCFVALVQSFSHYNIVGQKLGVSLTAARDRGQLVFLEGLKSSVEVLFHSQDEPHPLQFLREAGTGNLQSLYTFIQDTLKPADSEESPWKYPVLLVDNLSVLLSLGVGAVAVLDFMQYCRATVCCELKGNVVALVHDTEGATDEGNDTLLNGLSHQSHLILRAEGLATGFCKDVHGQLSILWRRPSRSTAQRAQSLTYQYKIQDKNVSFFAKGMSPAVL |  |
| binds | binds | binds |  | Mus musculus Elp4 (protein, UniProt Q9ER73 1-422) MAAADTCGAGTLSSRSVASEAGQGGTSSFQRKGKASGGPGGGPRLLSIAGTRPSVRNGQLLVSTGLPALDQLLGGGLAVGTLLLIEEDKYNIYSPLLFKYFMAEGIINGHTLLVASAKENPAKILQELPAPLLDDNSKKELEDVHSAKTPEPNVNMKIAWRYQLQPKMEVGPVSSSRFGHYYDLSKRIPWELLQSSKWHGFFLPEHISPDLKGESCFLSCGYMRLLEFIQKSVYAEGFDGANPQKKQKNILRIGIQNLGSPLWGDDICCKENCDNNHRLTKFLYILRGLLRSSLSACIITMPAHLVQNKSITTRVRNLSDTVVGLESFIGSERETNPLYKDYHGLIHIRKIPRLNNLTCDESDVKDLAFKLKRKLFTIERLHLPPDLSDTVGRSSKQDLAASTARLGAGCSSMAEGKKHLDF |  |
|  | binds | binds |  | Mus musculus Elp5 (protein, UniProt Q99L85 1-300) MLDSLLAIGGLVLLRDSVEWEGRSLLKALIKKSALRGEQVHVLGCEVSEEEFREGFDSDVNSRLVYHDLFRDPLNWSKPGEAVPEGPLKALRSMCKRTDHGSVTIALDSLSWLLCHIPCVTLCQALHALSQQNGDPGDNSLVEQVRVLGLLHEELHGPGSMGALNTLAHTEVTLSGKVDQTSASILCRRPQQRATYQTWWFSVLPDFSLTLHEGLPLRSELHPDHHTTQVDPTAHLTFNLHLSKKEREARDSLTLPFQFSSEKQKALLHPVPSRTTGHIFYEPDAFDDVDPEDPDDDLDI |  |
